Data on 21 targets can be found in the supplement of paper PMC10849652.

Protein sequences, listed by entry. Tags and fused reporters are not part of them. Lines headed by an entry give the natural chain unless they say otherwise; changes in a name come on top.
UniProt P61077: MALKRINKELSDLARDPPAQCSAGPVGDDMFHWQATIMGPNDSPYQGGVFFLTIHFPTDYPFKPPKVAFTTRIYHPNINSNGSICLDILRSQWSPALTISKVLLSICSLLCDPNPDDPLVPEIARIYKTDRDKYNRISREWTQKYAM
UniProt P61081: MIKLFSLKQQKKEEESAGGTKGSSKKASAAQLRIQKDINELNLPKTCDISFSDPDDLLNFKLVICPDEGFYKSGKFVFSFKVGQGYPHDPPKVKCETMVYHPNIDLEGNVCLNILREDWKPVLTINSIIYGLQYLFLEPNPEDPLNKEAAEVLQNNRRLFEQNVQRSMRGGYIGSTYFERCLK
UniProt Q15819: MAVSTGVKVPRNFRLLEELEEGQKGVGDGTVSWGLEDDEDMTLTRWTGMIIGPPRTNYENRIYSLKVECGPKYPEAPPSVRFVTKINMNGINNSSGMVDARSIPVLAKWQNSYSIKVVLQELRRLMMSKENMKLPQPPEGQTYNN
UniProt Q16763: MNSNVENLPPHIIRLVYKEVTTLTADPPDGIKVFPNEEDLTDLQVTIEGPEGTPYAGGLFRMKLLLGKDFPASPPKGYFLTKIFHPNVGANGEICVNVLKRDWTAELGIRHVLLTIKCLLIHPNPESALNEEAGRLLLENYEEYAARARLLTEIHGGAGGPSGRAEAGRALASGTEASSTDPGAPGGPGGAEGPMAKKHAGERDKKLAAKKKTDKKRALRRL
UniProt Q9UJK0: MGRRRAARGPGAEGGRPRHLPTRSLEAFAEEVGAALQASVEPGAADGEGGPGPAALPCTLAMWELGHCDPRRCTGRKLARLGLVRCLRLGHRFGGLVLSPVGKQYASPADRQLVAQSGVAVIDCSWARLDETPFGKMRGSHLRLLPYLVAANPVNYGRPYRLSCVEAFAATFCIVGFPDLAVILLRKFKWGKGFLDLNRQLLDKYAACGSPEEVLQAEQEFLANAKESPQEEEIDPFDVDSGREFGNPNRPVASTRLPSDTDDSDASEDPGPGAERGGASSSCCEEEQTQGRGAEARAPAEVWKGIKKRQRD
UniProt Q8NBS9: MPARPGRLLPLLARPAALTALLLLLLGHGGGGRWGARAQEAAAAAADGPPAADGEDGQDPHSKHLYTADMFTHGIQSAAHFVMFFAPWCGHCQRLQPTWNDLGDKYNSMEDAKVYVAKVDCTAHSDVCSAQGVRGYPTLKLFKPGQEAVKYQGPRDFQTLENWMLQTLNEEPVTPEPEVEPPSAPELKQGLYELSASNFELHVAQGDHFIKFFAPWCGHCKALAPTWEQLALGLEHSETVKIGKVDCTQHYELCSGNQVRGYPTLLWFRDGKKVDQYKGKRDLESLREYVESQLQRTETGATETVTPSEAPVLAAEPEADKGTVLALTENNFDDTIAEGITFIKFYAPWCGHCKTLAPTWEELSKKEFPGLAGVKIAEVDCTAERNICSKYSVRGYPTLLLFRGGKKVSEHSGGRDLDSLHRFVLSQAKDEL
UniProt Q9BTX7: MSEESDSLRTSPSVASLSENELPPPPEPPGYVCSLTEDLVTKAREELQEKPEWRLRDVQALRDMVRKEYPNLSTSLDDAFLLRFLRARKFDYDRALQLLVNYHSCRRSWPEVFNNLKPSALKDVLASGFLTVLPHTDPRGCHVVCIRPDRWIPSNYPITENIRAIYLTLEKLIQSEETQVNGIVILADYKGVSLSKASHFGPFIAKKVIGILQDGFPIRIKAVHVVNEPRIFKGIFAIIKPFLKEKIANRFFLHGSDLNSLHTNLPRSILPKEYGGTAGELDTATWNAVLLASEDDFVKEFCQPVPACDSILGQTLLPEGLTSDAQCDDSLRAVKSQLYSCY
UniProt Q96AE7: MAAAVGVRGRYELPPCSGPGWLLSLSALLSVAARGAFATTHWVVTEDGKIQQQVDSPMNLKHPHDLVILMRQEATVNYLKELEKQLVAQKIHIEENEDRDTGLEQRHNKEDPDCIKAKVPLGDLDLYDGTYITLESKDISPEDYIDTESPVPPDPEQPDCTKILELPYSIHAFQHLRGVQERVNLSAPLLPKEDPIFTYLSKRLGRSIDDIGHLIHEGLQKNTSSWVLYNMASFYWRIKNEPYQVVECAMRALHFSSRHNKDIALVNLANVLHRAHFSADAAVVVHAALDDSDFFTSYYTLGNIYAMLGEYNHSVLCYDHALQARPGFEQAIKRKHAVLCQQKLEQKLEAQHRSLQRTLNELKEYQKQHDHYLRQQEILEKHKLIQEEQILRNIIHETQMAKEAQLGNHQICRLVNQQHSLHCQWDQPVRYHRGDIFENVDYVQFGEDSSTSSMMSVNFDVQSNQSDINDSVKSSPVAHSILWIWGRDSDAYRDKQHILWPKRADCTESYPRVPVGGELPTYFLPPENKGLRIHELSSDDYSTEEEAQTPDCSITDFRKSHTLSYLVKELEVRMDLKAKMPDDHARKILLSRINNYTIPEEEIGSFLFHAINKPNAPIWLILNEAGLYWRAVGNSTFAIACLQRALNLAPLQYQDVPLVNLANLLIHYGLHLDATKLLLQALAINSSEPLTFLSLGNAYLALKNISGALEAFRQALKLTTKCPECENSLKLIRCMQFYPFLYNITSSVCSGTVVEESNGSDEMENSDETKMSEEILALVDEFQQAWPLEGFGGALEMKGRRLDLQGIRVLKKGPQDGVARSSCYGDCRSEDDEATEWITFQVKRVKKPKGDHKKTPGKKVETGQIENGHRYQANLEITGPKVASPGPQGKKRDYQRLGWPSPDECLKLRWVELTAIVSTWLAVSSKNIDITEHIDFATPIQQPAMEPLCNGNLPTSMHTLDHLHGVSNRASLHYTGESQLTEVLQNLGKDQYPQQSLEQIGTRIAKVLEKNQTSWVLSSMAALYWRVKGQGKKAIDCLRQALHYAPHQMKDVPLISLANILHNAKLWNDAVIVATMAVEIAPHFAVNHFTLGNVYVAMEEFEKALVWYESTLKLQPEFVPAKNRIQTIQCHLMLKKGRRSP
UniProt O95857: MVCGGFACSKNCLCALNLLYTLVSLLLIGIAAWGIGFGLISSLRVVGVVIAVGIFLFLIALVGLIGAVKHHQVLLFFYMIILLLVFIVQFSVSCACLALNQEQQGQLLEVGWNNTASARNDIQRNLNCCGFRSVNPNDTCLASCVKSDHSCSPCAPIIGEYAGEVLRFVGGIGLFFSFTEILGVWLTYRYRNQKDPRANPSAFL
UniProt Q9BRA2: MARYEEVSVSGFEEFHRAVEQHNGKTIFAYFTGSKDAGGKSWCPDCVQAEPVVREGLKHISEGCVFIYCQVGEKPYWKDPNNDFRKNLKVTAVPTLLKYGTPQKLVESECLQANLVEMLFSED
UniProt Q9BVA1, whole entry, looked up: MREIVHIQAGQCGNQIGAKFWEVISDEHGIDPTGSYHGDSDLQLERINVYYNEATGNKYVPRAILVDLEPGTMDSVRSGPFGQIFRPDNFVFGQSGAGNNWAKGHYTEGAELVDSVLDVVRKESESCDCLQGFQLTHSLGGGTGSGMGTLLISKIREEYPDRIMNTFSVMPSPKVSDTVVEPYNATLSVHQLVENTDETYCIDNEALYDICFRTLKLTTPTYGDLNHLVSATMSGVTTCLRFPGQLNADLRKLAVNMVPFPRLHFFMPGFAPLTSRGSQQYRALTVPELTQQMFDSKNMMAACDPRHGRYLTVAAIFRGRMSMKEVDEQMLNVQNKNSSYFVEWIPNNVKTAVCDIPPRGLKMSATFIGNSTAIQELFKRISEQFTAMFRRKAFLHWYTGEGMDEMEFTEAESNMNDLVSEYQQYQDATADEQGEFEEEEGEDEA
UniProt A2RUC4: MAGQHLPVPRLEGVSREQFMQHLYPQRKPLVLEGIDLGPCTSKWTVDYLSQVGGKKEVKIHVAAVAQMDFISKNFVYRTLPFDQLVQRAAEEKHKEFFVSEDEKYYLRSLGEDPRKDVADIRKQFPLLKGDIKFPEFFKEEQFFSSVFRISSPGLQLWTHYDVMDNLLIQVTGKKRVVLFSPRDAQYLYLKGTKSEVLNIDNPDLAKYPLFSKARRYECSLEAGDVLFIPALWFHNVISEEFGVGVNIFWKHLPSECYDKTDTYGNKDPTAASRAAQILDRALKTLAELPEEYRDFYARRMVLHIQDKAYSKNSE
UniProt Q5R3I4: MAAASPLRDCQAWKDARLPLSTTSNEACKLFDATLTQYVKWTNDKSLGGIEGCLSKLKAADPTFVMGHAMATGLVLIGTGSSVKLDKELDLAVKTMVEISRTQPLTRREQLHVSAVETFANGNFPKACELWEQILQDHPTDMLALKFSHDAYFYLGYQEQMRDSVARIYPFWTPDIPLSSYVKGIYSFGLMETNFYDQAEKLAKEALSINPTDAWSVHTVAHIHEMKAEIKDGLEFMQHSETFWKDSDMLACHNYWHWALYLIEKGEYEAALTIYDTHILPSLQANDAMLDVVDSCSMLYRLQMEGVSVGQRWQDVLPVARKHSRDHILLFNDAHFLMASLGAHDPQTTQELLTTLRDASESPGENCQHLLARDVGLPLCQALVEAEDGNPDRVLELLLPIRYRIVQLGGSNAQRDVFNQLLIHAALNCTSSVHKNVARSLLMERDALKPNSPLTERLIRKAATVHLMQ
UniProt Q86VQ3: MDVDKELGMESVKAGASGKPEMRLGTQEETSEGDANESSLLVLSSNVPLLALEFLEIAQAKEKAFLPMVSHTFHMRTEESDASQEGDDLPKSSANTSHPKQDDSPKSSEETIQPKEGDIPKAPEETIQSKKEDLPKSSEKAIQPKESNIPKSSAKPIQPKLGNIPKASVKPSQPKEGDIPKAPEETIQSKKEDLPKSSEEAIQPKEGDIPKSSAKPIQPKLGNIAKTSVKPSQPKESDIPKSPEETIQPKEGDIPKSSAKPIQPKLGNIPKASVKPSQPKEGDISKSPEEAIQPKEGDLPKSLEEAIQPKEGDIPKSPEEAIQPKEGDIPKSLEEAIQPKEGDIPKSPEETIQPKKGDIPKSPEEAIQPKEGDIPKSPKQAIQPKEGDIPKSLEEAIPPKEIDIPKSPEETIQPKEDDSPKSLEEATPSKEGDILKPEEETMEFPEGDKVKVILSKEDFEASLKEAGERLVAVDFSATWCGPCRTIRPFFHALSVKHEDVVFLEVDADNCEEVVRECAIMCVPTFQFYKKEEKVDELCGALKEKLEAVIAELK
UniProt Q9P2K2: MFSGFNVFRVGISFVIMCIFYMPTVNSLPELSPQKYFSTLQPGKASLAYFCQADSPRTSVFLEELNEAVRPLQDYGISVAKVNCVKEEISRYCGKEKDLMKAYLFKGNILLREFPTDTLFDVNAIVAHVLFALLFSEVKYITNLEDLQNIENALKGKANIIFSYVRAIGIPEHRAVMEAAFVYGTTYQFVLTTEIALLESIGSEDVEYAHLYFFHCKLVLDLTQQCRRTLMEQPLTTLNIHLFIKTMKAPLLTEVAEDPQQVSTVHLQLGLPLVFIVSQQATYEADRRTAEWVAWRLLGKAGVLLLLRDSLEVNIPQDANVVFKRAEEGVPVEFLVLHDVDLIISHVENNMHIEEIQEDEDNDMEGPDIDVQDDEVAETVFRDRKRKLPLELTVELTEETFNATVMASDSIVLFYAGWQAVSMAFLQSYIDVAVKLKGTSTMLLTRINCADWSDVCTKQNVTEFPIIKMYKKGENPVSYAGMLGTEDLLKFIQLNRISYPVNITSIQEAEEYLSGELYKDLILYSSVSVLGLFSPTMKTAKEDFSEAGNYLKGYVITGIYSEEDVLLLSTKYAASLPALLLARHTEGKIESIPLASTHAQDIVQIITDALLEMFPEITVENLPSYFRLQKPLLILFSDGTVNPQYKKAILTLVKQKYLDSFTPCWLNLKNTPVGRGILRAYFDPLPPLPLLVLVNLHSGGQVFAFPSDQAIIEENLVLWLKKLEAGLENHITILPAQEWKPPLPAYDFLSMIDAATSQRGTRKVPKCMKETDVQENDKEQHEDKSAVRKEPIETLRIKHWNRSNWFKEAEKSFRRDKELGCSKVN
UniProt Q7Z7E8: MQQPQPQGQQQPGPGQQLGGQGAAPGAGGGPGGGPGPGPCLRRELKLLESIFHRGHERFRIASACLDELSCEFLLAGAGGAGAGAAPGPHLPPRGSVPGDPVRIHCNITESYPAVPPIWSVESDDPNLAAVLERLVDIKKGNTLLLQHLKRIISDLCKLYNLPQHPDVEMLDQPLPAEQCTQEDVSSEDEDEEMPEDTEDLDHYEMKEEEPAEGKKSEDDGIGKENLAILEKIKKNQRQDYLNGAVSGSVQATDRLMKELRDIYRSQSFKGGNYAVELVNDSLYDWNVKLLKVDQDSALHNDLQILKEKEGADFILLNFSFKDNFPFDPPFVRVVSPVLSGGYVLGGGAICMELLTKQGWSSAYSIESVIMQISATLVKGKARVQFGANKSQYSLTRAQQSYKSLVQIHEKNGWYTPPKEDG
UniProt Q6PID6, whole entry, looked up: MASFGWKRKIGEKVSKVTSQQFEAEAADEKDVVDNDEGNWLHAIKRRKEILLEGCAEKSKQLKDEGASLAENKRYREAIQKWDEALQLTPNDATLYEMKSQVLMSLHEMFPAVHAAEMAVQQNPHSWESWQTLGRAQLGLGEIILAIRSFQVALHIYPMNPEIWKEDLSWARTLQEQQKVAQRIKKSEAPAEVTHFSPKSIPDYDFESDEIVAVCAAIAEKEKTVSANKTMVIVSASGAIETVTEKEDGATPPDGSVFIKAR

Some of the results follow.

Holding throughout (test): log2 fold change, soluble protein after heating vs DMSO (PISA); higher = thermal stabilisation; K562 cells, 10 uM, 30 min; active = over 0.2 and 3.5 SD of the protein, either way, in both replicates (recomputed)
Compound in test [1]: C1=CC=C(C=C1)[C@H](COC2=CC3=C(C=C2)NC(=O)N3)NC(=O)C4=CC=CN(C4=O)CC5=CC(=C(C=C5)F)F
Put shortly: (§1)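 K562 cells (2×10^6 cells/mL) were treated with 10 μM compound for 30 min, and aliquots were heated for 3 min over 48°C-58°C. Pooled aliquots were extracted in PBS with 0.5% NP-40 at 4°C, and the supernatant after 21,000xg for 90 min was measured by TMTpro 16plex LC-MS/MS with channel sums equalised. Reported thermal stability, relative to control samples and from duplicates, is a log2 fold change.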

Compound in test [2]: CC1=C(SC2=C1C(=N[C@H](C3=NN=C(N32)C)CC(=O)N)C4=CC=C(C=C4)Cl)C
Put shortly: as §1

Compound in test [3]: CC1=C2C(=CC=C1)N=C(N(C2=O)C3=CC=CC=C3C)CN4C=NC5=C(N=CN=C54)N
Put shortly: as §1

Compound in test [4]: Cc1sc2c(c1C)C(c1ccc(Cl)cc1)=N[C@@H](CC(=O)OC(C)(C)C)c1nnc(C)n1-2
The essentials:
as §1

Compound in test [5]: c1ccc([C@@H]2C[C@H]2NC2CCNCC2)cc1
Put shortly:
as §1

As for TUBGCP3 (UniProt Q96CW5), the log2 fold change was inactive: -0.081 in test [1]; inactive: 0 in test [2]; inactive: 0.091 in test [3]; inactive: 0.12 in test [4]; inactive: -0.047 in test [5].
For UBE2D3 isoform 3 (UniProt P61077) the same measures were inactive: -0.032, inactive: 0.097, inactive: 0.057, inactive: -0.023 and inactive: 0.003.
For UBE2M (UniProt P61081) the same measures were inactive: -0.011, inactive: 0.052, inactive: 0.059, inactive: -0.019 and inactive: -0.016.
For UBE2V2 (UniProt Q15819) the same measures were inactive: 0.02, inactive: 0.053, inactive: 0.04, inactive: -0.026 and inactive: -0.01.
Take UBE2S (UniProt Q16763): the log2 fold change in test [1] was inactive: 0.002; in test [2], inactive: 0.053; in test [3], inactive: 0.106; in test [4], inactive: 0; in test [5], inactive: 0.013.
In the same order, the values of TSR3 (UniProt Q9UJK0) are inactive: 0.053, inactive: -0.048, inactive: -0.022, inactive: 0.012 and inactive: 0.074.
For the target TXNDC5 (UniProt Q8NBS9), the log2 fold change in test [1] is inactive: 0.008; in test [2] it was inactive: 0.017; in test [3], inactive: -0.008; in test [4], inactive: -0.037; in test [5], inactive: 0.
As for TTPAL (UniProt Q9BTX7), the log2 fold change in test [1] was inactive: -0.048; in test [2], inactive: -0.07; in test [3], inactive: 0.044; in test [4], inactive: 0.004; in test [5] it was inactive: -0.001.
For TTC17 (UniProt Q96AE7), the log2 fold change in test [1] is inactive: 0.01; in test [2] it was inactive: 0; in test [3], inactive: -0.022; in test [4] it was inactive: 0.045; in test [5], inactive: 0.049.
Take TSPAN13 (UniProt O95857): the log2 fold change in test [1] is inactive: -0.195; in test [2] it was inactive: 0.023; in test [3], active: 0.639; in test [4], inactive: 0.076; in test [5], inactive: 0.018.
For TUBB3 (UniProt Q13509) the same measures were inactive: 0.011, inactive: 0.029, inactive: -0.02, inactive: -0.021 and inactive: -0.006.
For TXNDC17 (UniProt Q9BRA2) the same measures were inactive: 0.054, inactive: 0.032, inactive: 0.026, inactive: -0.021 and inactive: -0.001.
In the same order, the values of TUBB2B (UniProt Q9BVA1) are inactive: -0.038, inactive: -0.034, inactive: 0.024, inactive: -0.024 and inactive: -0.057.
Consider TUBB6 (UniProt K7ES63), for which the log2 fold change was inactive: -0.057 in test [1]; inactive: 0.193 in test [2]; inactive: 0.064 in test [3]; inactive: 0.105 in test [4]; inactive: 0.19 in test [5].
For TTC27 (UniProt Q6P3X3) the same measures were inactive: 0, inactive: -0.106, inactive: 0.072, inactive: 0.052 and inactive: 0.01.
Take TYW5 (UniProt A2RUC4): the values for the log2 fold change in test [3] and in test [4] were inactive: -0.057 and inactive: -0.004, respectively.
TTC38 (UniProt Q5R3I4): the log2 fold change is inactive: 0.046 in test [1]; inactive: 0.049 in test [2]; inactive: 0.032 in test [3]; inactive: -0.061 in test [4]; inactive: -0.016 in test [5].
For TXNDC2 (UniProt Q86VQ3), the log2 fold change in test [1] is inactive: 0.228; in test [3] it was inactive: -0.036.
In the case of TXNDC16 (UniProt Q9P2K2), the log2 fold change in test [2] was inactive: -0.066; in test [3], inactive: 0.064; in test [4] it was inactive: 0.012; in test [5], inactive: 0.013.
For the target UBE2Q1 (UniProt Q7Z7E8), the log2 fold change in test [1] is inactive: -0.041; in test [2], inactive: 0.061; in test [3], inactive: 0.053; in test [4], inactive: -0.001; in test [5], inactive: 0.062.
Regarding TTC33 (UniProt Q6PID6), the log2 fold change in test [1] was inactive: -0.142; in test [2], inactive: 0.018; in test [3], inactive: 0.073; in test [5], inactive: 0.019.
